According to patent US6750348B1, “Chemokine receptor binding heterocyclic compounds” (AnorMED, Inc., priority 1999, dated 2004):
Some entries share one result that the patent states for a list of compounds.

Tested on: HIV-1 NL4.3 or IIIB
Test: Inhibition of HIV-1 (NL4.3 or IIIB) replication in MT-4 cells (MTT)
Type: cell-based
Description: Compounds were tested for their ability to inhibit HIV-1 replication in MT-4 cells or PBMC's (peripheral blood mononucleocytes) using published procedures (for example, see: Labrosse et al. J. Virol. 1998, 6381-6388; Simmons et al. J. Virol. 1998, 8453-8457; Donzella et al. Nature Medicine 1998, 72-77; Schols et al. J. Exp. Med. 1997, 1383-1388; De Clercq et al. Antiviral Res. 1997, 147-156; and Bridger et al. U.S. patent application Ser. No. 09/111,895). In addition to the above references, experimental methods for performing anti-viral assays can also be found in: Bridger et al. J. Med. Chem. 1995, 38, 366-378; Bridger et al. J. Med. Chem. 1996, 39, 109-119; Bridger et al. U.S. Pat. No. 5,698,546; Bridger et al. U.S. Pat. No. 5,583,131; Bridger et al. U.S. Pat. No. 5,817,807; De Clercq et al. Antimicrob. Agents and Chemother. […]
Inhibition of HIV-1 NL4.3 (or IIIB) replication assays were performed as previously described (Bridger et al. J. Med. Chem. 1999, 42, 3971-3981; De Clercq et al. Proc. Natl. Acad. Sci, 1992, 89, 5286-5290; De Clercq et al. Antimicrob. Agents Chemother. 1994, 38, 668-674; Bridger et al. J. Med. Chem. 1995, 38, 366-378). […] After the MT-4 cells were allowed to proliferate for 5 days, the number of viable cells was quantified by a tetrazolium-based calorimetric 3-(4,5-dimethylthiazol-2-yl)-2,5-diphenyltetrazolium bromide (MTT) procedure in 96-well microtrays. […]

Substance: N-(2-pyridinylmethyl)-N′-(1H-imidazol-2-ylmethyl)-N′-(7-methoxy-1,2,3,4-tetrahydro-2-naphthalenyl)-1,4-benzenedimethanamine [Example 40]
- EC50, inhibition of HIV-1 NL4.3 or IIIB replication: < 20 µg/mL
